Paper PMC11580471

B1: USP17L13 (protein, UniProt C9JLJ4 1-530)
chain: MEEDSLYLGGEWQFNHFSKLTSSRLDAAFAEIQRTSLPEKSPLSCETRVDLCDDLVPEARQLAPREKLPLSSRRPAAVGAGLQNMGNTCYVNASLQCLTYTPPLANYMLSREHSQTCHRHKGCMLCTMQAHITRALHNPGHVIQPSQALAAGFHRGKQEDAHEFLMFTVDAMKKACLPGHKQVDHPSKDTTLIHQIFGGYWRSQIKCLHCHGISDTFDPYLDIALDIQAAQSVQQALEQLVKPEELNGENAYHCGVCLQRAPASKTLTLHTSAKVLILVLKRFSDVTGNKIAKNVQYPECLDMQPYMSQQNTGPLVYVLYAVLVHAGWSCHNGHYFSYVKAQEGQWYKMDDAEVTAASITSVLSQQAYVLFYIQKSEWERHSESVSRGREPRALGAEDTDRRATQGELKRDHPCLQAPELDEHLVERATQESTLDRWKFLQEQNKTKPEFNVRKVEGTLPPDVLVIHQSKYKCGMKNHHPEQQSSLLNLSSSTPTHQESMNTGTLASLRGRARRSKGKNKHSKRALLVCQ
B2: USP17L21 (protein, UniProt D6R901 1-530)
chain: B1 chain with L25P, V56A, E58V, S72N, P186H, T266M, H270L, Q310P, A357S, R436H
B3: USP17L22 (protein, UniProt D6RA61 1-530)
chain: B1 chain with E3D, L25P, V56A, E58V, P186H, A357S, R436H, N488K, S492T
B4: USP17L17 (protein, UniProt D6RBQ6 1-530)
chain: B1 chain with E3D, L25P, V56A, E58V, P186H, R436H
B5: USP17L10 (protein, UniProt C9JJH3 1-530)
chain: MEDDSLYLGGEWQFNHFSKLTSSRPDAAFAEIQRTSLPEKSPLSCETRVDLCDDLAPVARQLAPREKPPLSSRRPAAVGAGLQNMGNTCYVNASLQCLTYKPPLANYMLFREHSQTCHRHKGCMLCTMQAHITRALHIPGHVIQPSQALAAGFHRGKQEDAHEFLMFTVDAMRKACLPGHKQVDRHSKDTTLIHQIFGGYWRSQIKCLHCHGISDTFDPYLDIALDIQAAQSVQQALEQLVKPEELNGENAYHCGVCLQRAPASKTLTLHNSAKVLILVLKRFPDVTGNKIAKNVQYPECLDMQPYMSQQNTGPLVYVLYAVLVHAGWSCHNGHYSSYVKAQEGQWYKMDDAEVTASSITSVLSQQAYVLFYIQKSEWERHSESVSRGREPRALGVEDTDRRATQGELKRDHPCLQAPELDEHLVERATQESTLDHWKFLQEQNKTKPEFNVRRVEGTVPPDVLVIHQSKYKCRMKNHHPEQQSSLLNLSSTTPTDQESMNTGTLASLRGRTRRSKGKNKHSKRALLVCQ

The binders below were run against T1, F-box and leucine-rich repeat protein 16 (Flag-FBXL16) (human) (UniProt Q8N461) (assay: affinity purification with mass spectrometry; 0 to 2 µg Flag-FBXL16 plasmid transfected into HEK293 cells; precipitated with Flag magnetic beads, eluted with glycine (0.1 M, pH 2.8), neutralised with 0.5 M Tris-HCl; trypsin digestion and mass spectrometry).
T1 sequence: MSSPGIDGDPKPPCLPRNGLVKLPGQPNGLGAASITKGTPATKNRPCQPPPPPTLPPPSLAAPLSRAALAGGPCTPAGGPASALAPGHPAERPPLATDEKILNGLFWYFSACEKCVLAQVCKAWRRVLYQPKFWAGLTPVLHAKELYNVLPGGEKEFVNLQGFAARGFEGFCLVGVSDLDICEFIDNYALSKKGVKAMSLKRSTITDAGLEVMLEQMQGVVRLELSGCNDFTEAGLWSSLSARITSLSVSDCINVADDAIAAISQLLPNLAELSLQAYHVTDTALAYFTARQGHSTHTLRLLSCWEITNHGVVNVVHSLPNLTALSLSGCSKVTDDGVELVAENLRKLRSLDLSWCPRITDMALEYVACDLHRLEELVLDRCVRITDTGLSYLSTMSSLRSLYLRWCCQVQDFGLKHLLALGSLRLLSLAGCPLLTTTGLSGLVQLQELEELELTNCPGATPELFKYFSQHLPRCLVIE

binding, binds:
B1
B2
B3
B4
B5

Residue numbers refer to the chain shown, from its start. No constants are given. Whether binding was seen depends on the method and setting. Binding seen in cells or lysates may run through a third protein. Here binding means that the protein was enriched with, or labelled near, the bait; the list need not be complete. Where a sequence is shown, tags or fusion partners need not be part of it.
